Data published in ChEMBL document CHEMBL1152842, “Synthesis, Raman, FT-IR, NMR spectroscopic data and antimicrobial activity of mixed aza-oxo-thia macrocyclic compounds” (2009).

Tested on: Candida albicans
Test: Antifungal activity against Candida albicans ATCC 10231 at 1 ug after 72 hrs by disk diffusion method
Format: functional

NYSTATIN
inhibition zone (IZ): 18 mm
